The target in assay [1] is USP10-Flag (ubiquitin specific peptidase 10) (UniProt Q14694). Put plainly: co-IP; HEK293T cells co-transfected, 24 h; RIPA lysis buffer with protease inhibitors; immunoprecipitation with mouse anti-Flag mAb and protein-A Sepharose, six PBST washes; blot with anti-GFP.
Assay [2] has as its target endogenous USP10 (ubiquitin specific peptidase 10) (human (endogenous in HEK293T)) (UniProt Q14694). Put plainly: co-IP; endogenous proteins, HEK293T lysate; immunoprecipitation with anti-USP10 antibody (normal rabbit IgG as control); blot with anti-IGF2BP3.

Protein sequences, listed by entry. Tags and fused reporters are not part of them.
UniProt Q14694: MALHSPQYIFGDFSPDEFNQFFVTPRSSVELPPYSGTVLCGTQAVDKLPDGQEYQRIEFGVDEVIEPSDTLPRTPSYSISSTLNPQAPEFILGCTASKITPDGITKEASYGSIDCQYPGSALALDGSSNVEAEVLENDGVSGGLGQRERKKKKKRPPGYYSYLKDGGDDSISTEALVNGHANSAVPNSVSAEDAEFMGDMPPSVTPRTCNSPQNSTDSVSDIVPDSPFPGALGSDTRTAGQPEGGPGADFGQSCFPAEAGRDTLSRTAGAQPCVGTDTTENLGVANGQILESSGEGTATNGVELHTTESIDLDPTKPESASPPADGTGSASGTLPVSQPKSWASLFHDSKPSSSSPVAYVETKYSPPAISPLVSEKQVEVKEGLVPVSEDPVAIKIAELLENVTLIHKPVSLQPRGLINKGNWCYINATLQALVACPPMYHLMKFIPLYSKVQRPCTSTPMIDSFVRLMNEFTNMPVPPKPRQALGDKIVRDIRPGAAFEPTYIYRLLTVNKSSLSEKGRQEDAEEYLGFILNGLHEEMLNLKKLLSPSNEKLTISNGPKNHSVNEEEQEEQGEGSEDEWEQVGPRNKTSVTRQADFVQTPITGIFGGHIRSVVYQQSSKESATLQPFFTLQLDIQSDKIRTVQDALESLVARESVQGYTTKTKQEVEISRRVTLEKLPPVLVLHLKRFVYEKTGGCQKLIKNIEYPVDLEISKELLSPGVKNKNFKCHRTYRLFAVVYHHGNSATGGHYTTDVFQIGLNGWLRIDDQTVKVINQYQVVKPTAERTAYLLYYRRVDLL
UniProt O00425: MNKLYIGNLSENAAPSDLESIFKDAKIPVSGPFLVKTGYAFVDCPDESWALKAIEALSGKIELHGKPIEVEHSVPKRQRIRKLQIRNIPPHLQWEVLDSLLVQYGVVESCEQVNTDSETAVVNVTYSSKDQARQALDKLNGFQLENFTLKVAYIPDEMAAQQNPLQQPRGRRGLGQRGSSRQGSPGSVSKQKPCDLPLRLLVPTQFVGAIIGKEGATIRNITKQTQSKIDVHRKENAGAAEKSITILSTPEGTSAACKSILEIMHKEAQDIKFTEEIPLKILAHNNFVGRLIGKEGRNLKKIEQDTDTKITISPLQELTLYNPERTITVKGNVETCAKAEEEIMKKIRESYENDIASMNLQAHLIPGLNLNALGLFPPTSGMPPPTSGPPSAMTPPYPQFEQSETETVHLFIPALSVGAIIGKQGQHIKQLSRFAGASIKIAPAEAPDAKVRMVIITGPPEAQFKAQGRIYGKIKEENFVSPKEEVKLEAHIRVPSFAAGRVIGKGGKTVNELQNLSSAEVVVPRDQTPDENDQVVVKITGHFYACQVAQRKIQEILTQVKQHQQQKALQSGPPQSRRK

These are yes or no findings as the source states them, for the method shown. In cells and extracts the contact can be indirect. Some entries that bind do so weakly or less than the wild type.

Take IGF2BP3-GFP (from UniProt O00425 1-579): the binding entry in assay [1] is recorded as “binds”.

With “endogenous IGF2BP3 (from UniProt O00425 1-579)”, in assay [2], the binding result is “binds”.

Source of the values: publication PMC5706827.
